Values from PubChem BioAssay AID1259254 (NCATS, 2017)

Test: 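Genome-wide screen for genes that prevent DNA re-replication in cancer cells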 (primary screen)
Cells: human HCT116 colorectal cancer cells
Reagents: single siRNA against human genes
Time to read-out: 3 days
Measured: 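Nuclei stained with Hoechst and imaged; cell-cycle phase assigned by DNA content; G2 share scaled per plate, non-targeting siRNA 0%, GMNN siRNA 100%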
Scale: G2 robust z-score: higher = more G2 cells, more excess DNA replication
Call rule: 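Active siRNAs have a G2 robust z of 5 or more median absolute deviations over the median, which in these data means about 38% or higher of GMNN control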
The deposit covers about 59,000 reagents; this is a random part of them. About 1,550 of them (2.6%) count as active. 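G2 share is only a proxy for re-replication; each gene was hit by three separate siRNAs, and active genes were retested.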 Reagents against one gene are numbered here. Not all columns of the deposit are shown. No sequences are given here. Not stated in the record: the amount of reagent.

G2 robust z-score, by gene and reagent
LAMA2 (laminin subunit alpha 2): #1 1.09 inactive; #2 -0.53 inactive; #3 -0.767 inactive
FBXL8 (F-box and leucine rich repeat protein 8): #1 -0.476 inactive; #2 4.29 inactive; #3 -0.481 inactive
GPR119 (G protein-coupled receptor 119): #1 -1.21 inactive; #2 0.12 inactive; #3 0.314 inactive
C7orf25 (chromosome 7 open reading frame 25): #1 0.821 inactive; #2 -0.493 inactive; #3 -0.995 inactive
NDUFAF2P1 (NDUFAF2 pseudogene 1): #1 -1.1 inactive; #2 1.05 inactive; #3 0.707 inactive
DNAH17 (dynein axonemal heavy chain 17): #1 4.07 inactive; #2 -0.112 inactive; #3 -0.0846 inactive
MAGEA11 (MAGE family member A11): #1 -0.734 inactive; #2 0.595 inactive; #3 -0.341 inactive
VILL (villin like): #1 -0.332 inactive; #2 -0.413 inactive; #3 -0.93 inactive
ARRDC5 (arrestin domain containing 5): #1 -0.445 inactive; #2 -0.458 inactive; #3 -0.366 inactive
TNFSF13B (TNF superfamily member 13b): #1 -1.15 inactive; #2 0.191 inactive; #3 0.838 inactive
HERC2 (HECT and RLD domain containing E3 ubiquitin protein ligase 2): #1 1.04 inactive; #2 -0.821 inactive; #3 -0.561 inactive
RFX3 (regulatory factor X3): #1 -0.605 inactive; #2 0.0972 inactive; #3 -0.411 inactive
SSH2 (slingshot protein phosphatase 2): #1 1.47 inactive; #2 -0.819 inactive; #3 -1.24 inactive
SLC16A11: #1 -0.0129 inactive; #2 -1.33 inactive; #3 0.988 inactive

Laid out differently: results already given.
{"gene":"NDUFAF2P1 (NDUFAF2 pseudogene 1)","reagent no.":3,"G2 robust z-score":0.707,"call":"inactive"}
{"gene":"DNAH17 (dynein axonemal heavy chain 17)","reagent no.":1,"G2 robust z-score":4.07,"call":"inactive"}
{"gene":"DNAH17 (dynein axonemal heavy chain 17)","reagent no.":2,"G2 robust z-score":-0.112,"call":"inactive"}
{"gene":"DNAH17 (dynein axonemal heavy chain 17)","reagent no.":3,"G2 robust z-score":-0.0846,"call":"inactive"}

The results go on:
G2 robust z-score, by gene and reagent
CBFB (core-binding factor subunit beta): #1 -0.107 inactive; #2 1.23 inactive; #3 -0.344 inactive
RIN2 (Ras and Rab interactor 2): #1 -0.247 inactive; #2 -0.107 inactive; #3 6.93 active
TRIM51G (tripartite motif-containing 51G): #1 0.309 inactive; #2 2.09 inactive; #3 0.341 inactive
POMT2 (protein O-mannosyltransferase 2): #1 0.851 inactive; #2 -0.331 inactive; #3 -1.18 inactive
MTHFD2L: #1 0.525 inactive; #2 0.175 inactive; #3 -1.08 inactive
PAIP2 (poly(A) binding protein interacting protein 2): #1 -0.0517 inactive; #2 2.94 inactive; #3 -0.147 inactive
DUX1 (double homeobox 1): #1 -0.305 inactive; #2 -0.881 inactive; #3 -1.23 inactive
ASCL1 (achaete-scute family bHLH transcription factor 1): #1 1.07 inactive; #2 -0.314 inactive; #3 -0.787 inactive
SLC25A22: #1 1.28 inactive; #2 5.71 active; #3 -0.569 inactive
